Values of other authors as cited in EP2727592A1 (Kücükgüzel, Sükriye Güniz, priority 2012, dated 2014).
At least one compound was matched to its structure with a doubt left.

Amino acid sequences for entries named in this document (tags omitted). Residues count along the entry.
UniProt P23219, 24-599: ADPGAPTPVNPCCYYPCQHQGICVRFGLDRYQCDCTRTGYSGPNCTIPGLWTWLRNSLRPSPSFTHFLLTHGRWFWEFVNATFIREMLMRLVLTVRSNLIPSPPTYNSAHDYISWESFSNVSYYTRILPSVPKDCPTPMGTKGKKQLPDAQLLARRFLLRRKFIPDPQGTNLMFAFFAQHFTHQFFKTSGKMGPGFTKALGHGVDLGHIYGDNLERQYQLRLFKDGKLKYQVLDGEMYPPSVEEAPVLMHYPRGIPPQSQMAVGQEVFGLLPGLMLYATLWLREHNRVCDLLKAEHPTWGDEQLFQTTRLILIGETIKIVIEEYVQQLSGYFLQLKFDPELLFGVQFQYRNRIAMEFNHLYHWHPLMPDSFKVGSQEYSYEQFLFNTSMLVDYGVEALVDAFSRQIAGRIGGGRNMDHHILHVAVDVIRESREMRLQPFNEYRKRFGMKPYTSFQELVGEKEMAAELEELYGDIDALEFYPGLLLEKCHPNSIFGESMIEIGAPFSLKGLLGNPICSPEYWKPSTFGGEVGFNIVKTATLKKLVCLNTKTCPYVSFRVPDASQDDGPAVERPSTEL

Key:
[1] = customary dose orally
[2] = target: COX-1 (Homo sapiens, UniProt P23219)

In the case of `CC(=O)Nc1ccc(O)cc1` [PAR, 4-hydroxyacetanilide], the “duration of the analgesic effect” value [1] is listed as 3 to 4 h, the “start showing analgesic effects” value [1] is listed as at most 30 min and the COX-1 inhibition [2] is listed as “does not inhibit”.
